Test results taken from publication PMC9816925.
These are yes or no findings as the source states them, for the method shown. Binding seen in cells or lysates may run through a third protein. Some binding calls cover weakened binding; strength is not graded here.

Sequences of proteins named here, by UniProt entry; tags and fusion partners are left off.
UniProt Q9Y466: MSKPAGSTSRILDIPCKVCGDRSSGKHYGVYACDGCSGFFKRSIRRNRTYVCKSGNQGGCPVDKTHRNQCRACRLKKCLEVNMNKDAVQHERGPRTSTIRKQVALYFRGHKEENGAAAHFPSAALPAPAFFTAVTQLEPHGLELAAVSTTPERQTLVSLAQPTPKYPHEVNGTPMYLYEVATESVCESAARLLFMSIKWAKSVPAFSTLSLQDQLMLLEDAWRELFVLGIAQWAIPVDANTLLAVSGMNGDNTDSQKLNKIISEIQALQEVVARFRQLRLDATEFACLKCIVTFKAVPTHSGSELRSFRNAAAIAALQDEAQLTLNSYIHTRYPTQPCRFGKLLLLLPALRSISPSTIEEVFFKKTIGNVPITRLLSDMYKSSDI

Molecular target: HA-NR2E1 (UniProt Q9Y466)
Assay: co-IP; 293T cells co-expressing HA-NR2E1, Flag-LSD1 and LSD1-197-211 peptide; pull-down of HA-NR2E1 by Flag-LSD1 and reciprocal pull-down of Flag-LSD1 by HA-NR2E1

B1: LSD1-197-211 peptide (peptide)
peptide: PDIISGPQQTQKVFL
  binding: binds
